Some of the results follow. Most values lie at the level of the controls, where differences are scatter.
Compound: CN[C@@H]1C[C@H]2O[C@@](C)([C@@H]1OC)n1c3ccccc3c3c4c(c5c6ccccc6n2c5c31)C(=O)NC4 [staurosporine]
Experiment: log2 fold change of tryptic peptide abundance, ligand vs vehicle (limited proteolysis) (log2 ratio); higher = more trypsin-susceptible (destabilized)
Details: ligand concentration: 20 uM; sample: mouse liver crude lysate; replicate design: treated separately

The chains behind the UniProt entries cited, without tags or fusion partners. Where a name states a change or a piece, a line headed by the entry shows the natural chain unless it says otherwise.
UniProt A2AJT4: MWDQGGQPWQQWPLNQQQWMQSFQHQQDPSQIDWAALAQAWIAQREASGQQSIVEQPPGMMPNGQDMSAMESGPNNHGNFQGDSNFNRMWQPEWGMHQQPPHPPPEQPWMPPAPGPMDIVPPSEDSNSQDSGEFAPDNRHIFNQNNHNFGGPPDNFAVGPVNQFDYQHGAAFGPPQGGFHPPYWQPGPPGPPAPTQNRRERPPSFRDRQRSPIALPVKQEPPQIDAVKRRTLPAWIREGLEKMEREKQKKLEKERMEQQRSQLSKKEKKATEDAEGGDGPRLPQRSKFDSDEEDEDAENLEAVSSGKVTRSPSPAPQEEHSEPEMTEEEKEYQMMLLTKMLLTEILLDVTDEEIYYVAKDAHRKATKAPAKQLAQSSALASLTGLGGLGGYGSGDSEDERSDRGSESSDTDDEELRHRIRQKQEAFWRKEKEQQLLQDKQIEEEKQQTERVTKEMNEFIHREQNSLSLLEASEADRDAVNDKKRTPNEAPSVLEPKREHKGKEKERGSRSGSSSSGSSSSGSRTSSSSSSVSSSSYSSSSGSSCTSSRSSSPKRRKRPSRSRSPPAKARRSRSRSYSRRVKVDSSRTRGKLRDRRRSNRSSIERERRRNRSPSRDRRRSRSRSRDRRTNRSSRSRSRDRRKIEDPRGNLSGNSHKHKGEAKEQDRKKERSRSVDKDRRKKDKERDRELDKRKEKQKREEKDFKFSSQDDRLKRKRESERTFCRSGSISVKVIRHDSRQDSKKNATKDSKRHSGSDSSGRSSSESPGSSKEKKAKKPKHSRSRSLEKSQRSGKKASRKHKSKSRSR
UniProt A8C756: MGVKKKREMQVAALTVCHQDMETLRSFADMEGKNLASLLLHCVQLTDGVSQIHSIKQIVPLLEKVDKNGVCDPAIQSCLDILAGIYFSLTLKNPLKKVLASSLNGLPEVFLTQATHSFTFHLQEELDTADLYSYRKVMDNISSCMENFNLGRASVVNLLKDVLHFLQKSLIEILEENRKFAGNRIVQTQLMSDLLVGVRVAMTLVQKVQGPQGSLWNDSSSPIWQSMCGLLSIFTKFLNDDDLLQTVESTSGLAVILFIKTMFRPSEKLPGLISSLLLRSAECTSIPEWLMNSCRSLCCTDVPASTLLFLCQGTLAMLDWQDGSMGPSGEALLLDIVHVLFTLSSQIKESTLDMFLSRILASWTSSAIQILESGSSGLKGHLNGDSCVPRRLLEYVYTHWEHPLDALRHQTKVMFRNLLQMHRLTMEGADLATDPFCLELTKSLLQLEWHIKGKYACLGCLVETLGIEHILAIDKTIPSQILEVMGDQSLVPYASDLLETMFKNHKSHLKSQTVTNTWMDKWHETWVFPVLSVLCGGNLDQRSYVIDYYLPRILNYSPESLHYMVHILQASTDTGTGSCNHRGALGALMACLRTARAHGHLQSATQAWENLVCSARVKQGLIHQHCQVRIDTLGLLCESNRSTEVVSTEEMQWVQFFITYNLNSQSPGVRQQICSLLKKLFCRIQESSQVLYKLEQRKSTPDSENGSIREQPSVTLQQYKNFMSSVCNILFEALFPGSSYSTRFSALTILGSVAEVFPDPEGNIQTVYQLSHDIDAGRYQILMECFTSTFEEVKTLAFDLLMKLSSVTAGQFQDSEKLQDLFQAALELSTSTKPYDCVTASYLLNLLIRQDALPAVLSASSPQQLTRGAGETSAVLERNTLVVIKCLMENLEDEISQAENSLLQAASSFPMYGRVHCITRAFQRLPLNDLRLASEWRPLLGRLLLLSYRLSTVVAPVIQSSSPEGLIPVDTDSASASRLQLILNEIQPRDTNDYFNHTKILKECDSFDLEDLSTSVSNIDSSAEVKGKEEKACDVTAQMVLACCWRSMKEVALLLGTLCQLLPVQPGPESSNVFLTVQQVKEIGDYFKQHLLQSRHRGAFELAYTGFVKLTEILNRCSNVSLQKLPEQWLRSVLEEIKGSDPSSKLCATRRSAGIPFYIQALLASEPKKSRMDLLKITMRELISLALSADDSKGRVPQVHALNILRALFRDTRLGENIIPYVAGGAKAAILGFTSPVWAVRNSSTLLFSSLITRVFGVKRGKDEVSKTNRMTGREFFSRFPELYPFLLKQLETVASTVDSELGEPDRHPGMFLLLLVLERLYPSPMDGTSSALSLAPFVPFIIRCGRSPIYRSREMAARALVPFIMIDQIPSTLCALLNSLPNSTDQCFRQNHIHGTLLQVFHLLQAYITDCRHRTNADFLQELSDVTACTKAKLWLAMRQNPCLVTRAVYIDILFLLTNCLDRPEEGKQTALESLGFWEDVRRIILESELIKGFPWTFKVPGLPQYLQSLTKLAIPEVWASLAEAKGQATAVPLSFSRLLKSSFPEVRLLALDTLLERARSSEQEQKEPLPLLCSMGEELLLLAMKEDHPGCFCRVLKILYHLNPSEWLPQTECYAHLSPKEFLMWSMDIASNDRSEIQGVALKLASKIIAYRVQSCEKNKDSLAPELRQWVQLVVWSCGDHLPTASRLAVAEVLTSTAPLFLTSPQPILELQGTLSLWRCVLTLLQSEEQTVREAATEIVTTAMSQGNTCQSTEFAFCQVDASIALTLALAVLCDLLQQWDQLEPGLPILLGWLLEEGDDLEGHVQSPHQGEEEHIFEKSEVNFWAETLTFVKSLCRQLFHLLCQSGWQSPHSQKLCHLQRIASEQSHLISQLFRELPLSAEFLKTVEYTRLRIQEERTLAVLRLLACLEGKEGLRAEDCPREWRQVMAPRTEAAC
UniProt A2AQ07, whole entry: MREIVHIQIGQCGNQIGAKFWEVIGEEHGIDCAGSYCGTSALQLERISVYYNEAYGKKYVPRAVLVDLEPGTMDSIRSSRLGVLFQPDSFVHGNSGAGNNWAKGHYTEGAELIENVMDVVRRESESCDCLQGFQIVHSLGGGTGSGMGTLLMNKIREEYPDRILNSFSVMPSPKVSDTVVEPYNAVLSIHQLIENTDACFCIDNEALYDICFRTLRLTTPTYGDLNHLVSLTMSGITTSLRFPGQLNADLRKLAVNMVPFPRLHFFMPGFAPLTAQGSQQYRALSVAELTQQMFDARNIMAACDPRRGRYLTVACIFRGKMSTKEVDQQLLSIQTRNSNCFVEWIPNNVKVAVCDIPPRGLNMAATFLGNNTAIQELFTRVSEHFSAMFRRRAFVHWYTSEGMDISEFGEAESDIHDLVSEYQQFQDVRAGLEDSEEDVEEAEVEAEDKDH

| Target | log2 fold change |
| --- | --- |
| UniProt A2AJT4 (peptide sequence: GNLSGNSHK, peptide start residue: 647) | 0.778 |
| UniProt A8C756 (peptide sequence: LQLILNEIQPR, peptide start residue: 979) | -0.102 |
| UniProt A2AQ07 (peptide sequence: IREEYPDR, peptide start residue: 155) | -0.0886 |

From the supplement of paper PMC12819154, “High-throughput peptide-centric local stability assay extends protein–ligand identification to membrane proteins, tissues and bacteria” (Nature Structural & Molecular Biology, 2025)
